In the test the target is B-cell lymphoma 2 (human (endogenous in ARPE-19)) (UniProt P10415). Description: co-IP; ARPE-19 cell lysates added to Dynabeads protein A with Bcl-2 antibody, 4°C overnight with rotation, washed with PBS-T, western blot; cells treated with vehicle, 100 μM CQ, 2 μM PPD+100 μM CQ or 2 μM PPD for 6 h. (In western blotting, separated proteins are transferred to a membrane and probed.)

By UniProt entry, the sequences of proteins in these tests, tags left out.
UniProt P10415: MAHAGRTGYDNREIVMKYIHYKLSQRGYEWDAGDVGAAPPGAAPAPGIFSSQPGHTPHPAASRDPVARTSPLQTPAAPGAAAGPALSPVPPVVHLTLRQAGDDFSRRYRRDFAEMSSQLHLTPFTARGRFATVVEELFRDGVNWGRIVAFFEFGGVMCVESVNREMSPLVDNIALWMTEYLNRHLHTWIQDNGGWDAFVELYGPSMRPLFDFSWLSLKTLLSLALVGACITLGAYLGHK
UniProt Q14457: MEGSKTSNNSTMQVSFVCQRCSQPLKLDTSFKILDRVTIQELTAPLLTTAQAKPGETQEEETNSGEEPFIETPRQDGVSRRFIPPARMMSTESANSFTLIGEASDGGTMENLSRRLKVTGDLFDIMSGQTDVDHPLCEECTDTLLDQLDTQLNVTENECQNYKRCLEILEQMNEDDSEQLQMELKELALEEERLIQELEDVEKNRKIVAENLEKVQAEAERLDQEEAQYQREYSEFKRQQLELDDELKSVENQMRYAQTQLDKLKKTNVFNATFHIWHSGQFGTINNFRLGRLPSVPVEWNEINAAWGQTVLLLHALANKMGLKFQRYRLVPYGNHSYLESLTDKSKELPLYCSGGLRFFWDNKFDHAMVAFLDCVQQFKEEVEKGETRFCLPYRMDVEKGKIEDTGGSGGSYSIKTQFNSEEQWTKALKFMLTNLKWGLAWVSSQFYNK

No constants are given. Whether binding was seen depends on the method and setting. Binding seen in cells or lysates may run through a third protein. Some binding calls cover weakened binding; strength is not graded here.

As to Beclin-1 (from UniProt Q14457 1-450), the binding entry is on record as “binds”.

For the origin of these results see article PMC9714852.
